# Measurements as given in PMC5996148.
# This is one part of the list. For some assays here: The source does not settle which construct or isoform was used.
# Assays:
# Experiment in all cases: protein microarray (ProtoArray v5.0), streptavidin-Alexa Fluor 647
# Details in all cases: 3'-biotin; 20 mM Tris (pH 7.5), 5 mM MgCl2, 100 mM KCl, 0.1% Tween-20, A/T-rich and random oligonucleotide blockers; temperature not stated; high values mean tight binding
# [1] = tested on: Bardet-Biedl syndrome 10 protein (human)
# [2] = tested on: Beta-2-microglobulin (human)
# [3] = tested on: Bifunctional protein NCOAT (human)
# [4] = tested on: Biogenesis of lysosome-related organelles complex 1 subunit 1 (human)
# [5] = tested on: Branched-chain-amino-acid aminotransferase, mitochondrial (human)
# [6] = tested on: Breast carcinoma-amplified sequence 4 (human)
# [7] = tested on: Butyrophilin subfamily 2 member A2 (human)
# [8] = tested on: C-C motif chemokine 20 (human)
# [9] = tested on: C-C motif chemokine 4 (human)
# [10] = tested on: C-Maf-inducing protein (human)
# [11] = tested on: C-terminal-binding protein 1 (human)
# [12] = tested on: C-type lectin domain family 12 member A (human)
# [13] = tested on: C-type lectin domain family 2 member D (human)
# C10orf35 (human) = tested on: C10orf35 (human)
# C10orf46 (human) = tested on: C10orf46 (human)
# C10orf58 = target: T1, C10orf58 (UniProt Q9BRX8)
# T1 sequence: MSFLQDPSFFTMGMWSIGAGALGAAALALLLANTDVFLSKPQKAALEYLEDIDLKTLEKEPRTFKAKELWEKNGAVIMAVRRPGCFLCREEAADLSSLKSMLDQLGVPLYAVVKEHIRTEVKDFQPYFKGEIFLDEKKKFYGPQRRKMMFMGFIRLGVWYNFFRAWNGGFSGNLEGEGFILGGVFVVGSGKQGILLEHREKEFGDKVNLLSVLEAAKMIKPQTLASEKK
# C11orf51 (human) = tested on: C11orf51 (human)
# C11orf52 = target: T2, C11orf52 (UniProt Q96A22)
# T2 sequence: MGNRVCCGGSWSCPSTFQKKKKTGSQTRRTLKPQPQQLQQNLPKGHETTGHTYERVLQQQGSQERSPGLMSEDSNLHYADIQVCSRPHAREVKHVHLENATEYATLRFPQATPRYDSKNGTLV
# C11orf53 (human) = tested on: C11orf53 (human)
# C11orf70 (human) = tested on: C11orf70 (human)
sequence,measurement,setting,value
GGTGACAGGGGTATGGGGAGGGG [G4-2 biotinylated (Ct1)],binding signal,[1],-0.358 z-score
same,binding signal,[2],-0.383 z-score
same,binding signal,[3],-0.395 z-score
same,binding signal,[4],-0.367 z-score
same,binding signal,[5],-0.399 z-score
same,binding signal,[6],-0.392 z-score
same,binding signal,[7],-0.391 z-score
same,binding signal,[8],-0.377 z-score
same,binding signal,[9],-0.387 z-score
same,binding signal,[10],-0.392 z-score
same,binding signal,[11],-0.403 z-score
same,binding signal,[12],-0.392 z-score
same,binding signal,[13],-0.376 z-score
same,binding signal,C10orf35 (human),-0.377 z-score
same,binding signal,C10orf46 (human),-0.379 z-score
same,binding signal,C10orf58,-0.374 z-score
same,binding signal,C11orf51 (human),-0.393 z-score
same,binding signal,C11orf52,6 z-score
same,binding signal,C11orf53 (human),-0.386 z-score
same,binding signal,C11orf70 (human),-0.365 z-score

# Looked up one by one from the list above:
sequence,measurement,setting,value
GGTGACAGGGGTATGGGGAGGGG [G4-2 biotinylated (Ct1)],binding signal,C11orf51 (human),-0.393 z-score
same,binding signal,C10orf46 (human),-0.379 z-score
